Some of the results follow.
System: T1, CTL2-GFP (C. trachomatis L2/434/Bu, GFP-expressing)
T1 construct: L2/434/Bu, GFP-expressing
Set-up: species or system HeLa; Intracellular C. trachomatis growth in HeLa cells, bulk GFP fluorescence relative to DMSO
Settings: bulk GFP, single well; 28.5 h, 10 µM; inhibitor

SMILES | % of control remaining
COc1cccc(C(=O)c2snc(Nc3ccc(F)cc3)c2N)c1 [CBK269173] | 126.091%
Cc1noc(C)c1CC(=O)NCc1cccc(C#N)c1 [CBK305822] | 97.8949%
Cn1nc(C2CCN(C(=O)c3cccs3)CC2)c2cccnc21 [CBK284925] | 102.99%
O=C(CN1CCOCC1)N1CCC(F)CC1 [CBK200383] | 113.831%
Cc1cc(C)c(NC(=O)CSc2nc(C)c(Cc3ccccc3Cl)c(O)n2)c([N+](=O)[O-])c1 [CBK268693] | 148.02%
O=C(c1c[nH]c2ccccc12)C(F)(F)C(F)(F)F [CBK007222] | 126.783%
CS(=O)(=O)N1CC2(CCN(CCOCc3ccccc3)CC2)c2ccccc21 [CBK115458T] | 141.254%
CC(C)N(Cc1nc(-c2ccccc2)no1)C(=O)CCc1ccccc1 [CBK269867] | 75.1658%
O=C(CCS(=O)(=O)c1ccccc1)Nc1ccc(N2CCNCC2)c2ccccc12 [CBK028408T] | 97.7307%
Cc1cc(C(=O)N2CC[C@H]3NC(=O)c4ccccc4OCCCCC[C@H]3C2)no1 [CBK292005] | 145.996%
Cc1ccc(S(=O)(=O)Nc2ccccn2)c(C)c1C [CBK264995] | 126.04%
Cc1nc2c(OCCN3C(=O)c4ccccc4C3=O)cccn2c1N(C)C(=O)C1CCCCC1 [CBK147157] | 103.81%
N=c1c2c(-c3ccccc3)c(-c3ccccc3)oc2ncn1CCCN1CCOCC1 [CBK268484] | 122.515%
O=C1CCCN1C(=O)CN1CCOCC1 [CBK261467] | 84.6636%
CCOc1ccc(C(=O)Nc2ccc(S(=O)(=O)N3CCN(C)CC3)cc2)cc1 [CBK269959] | 137.442%
OC(CN1CCC(O)(Cn2cnc3ccccc32)CC1)c1ccc(-c2ccccc2)cc1 (stereo not drawn) [CBK286437] | 109.25%
O=C(CNC(=O)OCc1ccncc1)NCC(CCCN1CCC(c2ccccc2)CC1)(c1ccccc1)c1ccccc1 [CBK024060A] | 143.102%
O=C(Nc1ccccc1C(F)(F)F)c1ccc(-n2cnnn2)cc1 [CBK300521] | 163.88%
C/C(N)=C(/C#N)C(NC(=O)C1CCCCC1)(C(F)(F)F)C(F)(F)F [CBK267902] | 108.932%
Nc1ccc2ccc(-c3ccsc3)nc2n1 [CBK067624] | 125.84%
O=C1N[C@H]2CCCN(C(=O)c3cc(=O)[nH]c(=O)[nH]3)[C@H]2C/C=C/CCOc2ccccc21 [CBK292065] | 96.2121%
O=C(c1coc(COc2cccc(F)c2)n1)N1CC(n2cccn2)C1 [CBK306842] | 142.927%
Cc1csc(C(C)NC(=O)c2cccnc2NCc2ccc3c(c2)OCO3)n1 (stereo not drawn) [CBK153425] | 76.5848%
Cc1nn(CCNC(=O)C(c2ccc(F)cc2)N(C)C)c(C)c1C (stereo not drawn) [CBK282009] | 106.674%
Nc1ncc(-c2ccc(C(=O)N3CCOCC3)cc2)nc1C(=O)NCc1ccc(O)cc1 [CBK149161] | 121.796%
CN(Cc1nc(-c2cccnc2)no1)S(=O)(=O)c1ccc2ccccc2c1 [CBK267385] | 99.6622%

20 neighbouring records from above:
SMILES | % of control remaining
O=C(c1c[nH]c2ccccc12)C(F)(F)C(F)(F)F [CBK007222] | 126.783%
CS(=O)(=O)N1CC2(CCN(CCOCc3ccccc3)CC2)c2ccccc21 [CBK115458T] | 141.254%
CC(C)N(Cc1nc(-c2ccccc2)no1)C(=O)CCc1ccccc1 [CBK269867] | 75.1658%
O=C(CCS(=O)(=O)c1ccccc1)Nc1ccc(N2CCNCC2)c2ccccc12 [CBK028408T] | 97.7307%
Cc1cc(C(=O)N2CC[C@H]3NC(=O)c4ccccc4OCCCCC[C@H]3C2)no1 [CBK292005] | 145.996%
Cc1ccc(S(=O)(=O)Nc2ccccn2)c(C)c1C [CBK264995] | 126.04%
Cc1nc2c(OCCN3C(=O)c4ccccc4C3=O)cccn2c1N(C)C(=O)C1CCCCC1 [CBK147157] | 103.81%
N=c1c2c(-c3ccccc3)c(-c3ccccc3)oc2ncn1CCCN1CCOCC1 [CBK268484] | 122.515%
O=C1CCCN1C(=O)CN1CCOCC1 [CBK261467] | 84.6636%
CCOc1ccc(C(=O)Nc2ccc(S(=O)(=O)N3CCN(C)CC3)cc2)cc1 [CBK269959] | 137.442%
OC(CN1CCC(O)(Cn2cnc3ccccc32)CC1)c1ccc(-c2ccccc2)cc1 (stereo not drawn) [CBK286437] | 109.25%
O=C(CNC(=O)OCc1ccncc1)NCC(CCCN1CCC(c2ccccc2)CC1)(c1ccccc1)c1ccccc1 [CBK024060A] | 143.102%
O=C(Nc1ccccc1C(F)(F)F)c1ccc(-n2cnnn2)cc1 [CBK300521] | 163.88%
C/C(N)=C(/C#N)C(NC(=O)C1CCCCC1)(C(F)(F)F)C(F)(F)F [CBK267902] | 108.932%
Nc1ccc2ccc(-c3ccsc3)nc2n1 [CBK067624] | 125.84%
O=C1N[C@H]2CCCN(C(=O)c3cc(=O)[nH]c(=O)[nH]3)[C@H]2C/C=C/CCOc2ccccc21 [CBK292065] | 96.2121%
O=C(c1coc(COc2cccc(F)c2)n1)N1CC(n2cccn2)C1 [CBK306842] | 142.927%
Cc1csc(C(C)NC(=O)c2cccnc2NCc2ccc3c(c2)OCO3)n1 (stereo not drawn) [CBK153425] | 76.5848%
Cc1nn(CCNC(=O)C(c2ccc(F)cc2)N(C)C)c(C)c1C (stereo not drawn) [CBK282009] | 106.674%
Nc1ncc(-c2ccc(C(=O)N3CCOCC3)cc2)nc1C(=O)NCc1ccc(O)cc1 [CBK149161] | 121.796%

The list continues.

SMILES | % of control remaining
Nc1ncc(-c2cccc(-c3ccccc3)c2)nc1NCc1cccnc1 [CBK063491] | 212.274%
CCOc1cc(C2CC(=O)NC(SCC(=O)Nc3cccc(C(F)(F)F)c3)=C2C#N)ccc1O (stereo not drawn) [CBK265778] | 83.2143%
C[C@H]1CN2CCCC2CN1Cc1cccc(F)c1F (stereo partly drawn) [CBK285454] | 80.8085%
COc1ccc(Nc2nc(N)nc(CSC(=S)N3CCN(C)CC3)n2)cc1 [CBK265232] | 126.556%
COCC1CN(C(=O)Nc2nnc(Cc3ccc(C)cc3)s2)CCO1 (stereo not drawn) [CBK306278] | 158.679%
O=C(c1ccccc1)N1CCc2[nH]nc(-c3ccccc3)c2C1 [CBK287904] | 118.457%
Cc1nc(COc2ccc(Cl)cc2)sc1C(=O)N1CCCCC1C(=O)O (stereo not drawn) [CBK304233] | 103.482%
COc1ccccc1CC(=O)Nc1ccc(-c2nnc(-c3ccc(C)cc3)o2)cc1 [CBK268329] | 100.224%
COc1ccccc1NC(=O)Cn1c(=O)oc2cc(Cl)ccc21 [CBK269344] | 111.923%
CC(Cc1c[nH]c2ccccc12)NC(=N)NC(=N)N (stereo not drawn) [CBK268251C] | 73.9099%
CN1CCOC(CNCc2ccc(OCC(N)=O)cc2)C1 (stereo not drawn) [CBK304830] | 82.531%
CC(C)(C)c1ccc(O)c(NC(=S)NC(=O)c2cccc(OCc3ccccc3)c2)c1 [CBK269018] | 82.775%
Cc1ccc(CNC(=O)Cc2ccc(-c3ccc(CN4CCC(C)CC4)cc3)nc2)cc1F [CBK158402] | 104.892%
O=C(O)CNC(=O)CNC(=O)C12CC3CC(CC(C3)C1)C2 [CBK287083] | 129.213%
O=C1NCC2(CCCN(Cc3ccc(F)cc3)C2)Oc2ccccc21 (stereo not drawn) [CBK284857] | 99.258%
CCOc1ccc2nc(SCCN3CCOCC3)sc2c1 [CBK005888] | 125.094%
S=C(Nc1ccccc1)N(Cc1ccccc1)Cc1ccncc1 [CBK267991] | 90.7177%
COc1ccc(CCNC(=O)N2CCN(c3ccccc3)CC2)cc1 [CBK155199] | 128.191%
Cc1nc2ccccn2c1CN1CCC(Oc2ccc(F)cc2)CC1 [CBK281803] | 101.519%
CC1=NN(c2nc(-c3ccc(Br)cc3)cs2)C(=O)C1/N=N/c1ccccc1C(=O)O (stereo not drawn) [CBK262440] | 133.575%
CCN(CC)C(=O)c1sccc1NS(=O)(=O)Cc1ccccc1[N+](=O)[O-] [CBK050396] | 111.91%
CCOc1ccc(N2C(=O)CC(Nc3cc(C(=O)O)ccc3C)C2=O)cc1 (stereo not drawn) [CBK296651] | 123.903%
Nc1ncc2ncn([C@@H]3O[C@H](CO)[C@H](O)C3O)c2n1 (stereo partly drawn) [CBK201318] | 127.586%
O=C(O)c1cc(-n2c(S)nnc2-c2ccncc2)ccc1Cl [CBK268989] | 136.611%
CC(C)(C)c1ccnc(N[C@H]2CO[C@H]3[C@@H]2OC[C@@H]3NCc2ccccn2)n1 [CBK289524] | 115.345%
NC(=O)CCCN1CC[C@H]2c3c(cccc3C(N)=O)CC[C@H]21 [CBK007883] | 174.963%

SMILES | % of control remaining
COc1ccc(C(=O)NCCCSc2nc(C(C)(C)C)cc(C(F)(F)F)n2)cc1 [CBK268690] | 136.43%
Cc1ccc(NC(=O)CC(=O)NCCN2CCOCC2)cc1 [CBK262179] | 112.859%
Cc1c(NC(=O)CN2CCCC(C)C2)ccc2nsnc12 (stereo not drawn) [CBK269248] | 117.225%
c1ccc(N2CCN(c3nc4cc5c(cc4s3)OCCO5)CC2)cc1 [CBK287499] | 146.103%
c1ccc(CCN2CCCN(c3ccnc(OCCN4CCOCC4)n3)CC2)nc1 [CBK083813] | 104.002%
CCSc1nc2ccccc2n1CC(=O)O [CBK262059] | 100%
CCNC(=O)c1ccccc1NC(=O)C(C)Oc1ccccc1 (stereo not drawn) [CBK269933] | 122.829%
CCN1CC(C(=O)N2CC(O)CC2c2cc(F)ccc2F)CC1=O (stereo not drawn) [CBK304031] | 139.35%
Cn1cccc1C(=O)N1CCC(OCc2cnc(-c3ccc(S(C)(=O)=O)cc3)cn2)CC1 [CBK172007] | 106.387%
CN(C)CCN(CCc1ccccc1)Cc1ccncc1 [CBK283145] | 119.7%
Cc1cc2ccccc2n2c(=O)n(CCNC(=O)C(C)C)nc12 [CBK282876] | 113.571%
Cc1ccc(N2CCN(CC(O)COc3ccc(C(=O)c4ccc(Cl)cc4)cc3)CC2)c(C)c1 (stereo not drawn) [CBK266117] | 161.814%
Cc1cnc2c(c1)cc(C1CCOCC1)n2CC(=O)N(C)C [CBK284754] | 116.486%
O=S(=O)(Nc1ccc(N2CCNCC2)c2ccccc12)c1ccc(Cl)s1 [CBK003146C] | 46.7574%
Cc1cc(Cl)ccc1NC(=O)COCC(=O)O [CBK057723] | 137.82%
CC(N)C1CCCCN1S(=O)(=O)c1ccc(OCc2ncnn2C)cc1 (stereo not drawn) [CBK304272C] | 139.447%
CCCc1ccc(S(=O)(=O)Nc2cccc(C(=O)N3CCN(C)CC3)c2)cc1 [CBK039034] | 105.44%
CSc1ccc(CNC(=O)c2sc3nc(C)nc(N4CCCC4)c3c2C)cc1 [CBK294432] | 155.771%
Cc1ccc(Cc2c(C)[nH]c3[nH]n(-c4ccccc4)c(=O)c3c2=O)cc1 [CBK270273] | 148.328%
Cc1cc(C)nc(N/C(=N/C(=O)CCN2C(=O)c3ccccc3C2=O)Nc2cccc(Cl)c2)n1 [CBK266507] | 190.529%
O=C(Cn1c(-c2cccs2)cc2cccnc21)NCc1ccncc1 [CBK282456] | 143.481%
Cc1ccc(C(=O)O/C(=C/c2nc3ccccc3n2Cc2cccc3ccccc23)c2ccc(C)cc2)cc1 [CBK262485] | 107.148%
Cc1cc(=O)oc2ccc(OCC(=O)Nc3ccc(S(=O)(=O)O)cc3)cc12 [CBK263185N] | 116.876%
O=C(Cc1ccccc1F)NCCn1nc(-c2ccco2)ccc1=O [CBK283705] | 134.742%
COC(=O)c1c(NC(=S)NC(=O)c2c(Br)c(C)nn2C)sc2c1CCCCCC2 [CBK267486] | 159.514%
CCn1nc(C)c(C(C)NC(=O)C(C)n2cc(Cl)cn2)c1C (stereo not drawn) [CBK281550] | 121.117%

Source: publication PMC12040169 (PLOS Biology, 2025)
